From PubChem BioAssay AID2685 (National Center for Advancing Translational Sciences (NCATS), 2010)
The list shows a part of the results. Shown are side measurements of this screen, not its main read-out; they come without a call. Compounds called inactive in the main read-out are mostly missing here. Words in brackets tell the shape of the fitted curve; partial curves, single points and poor fits give uncertain potencies.

Test: qHTS Assay for Lipid Storage Modulators in Drosophila S3 Cells;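 for cell number change: cells counted by Cell Tracker Red CMTPX staining in the red channel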
Conditions: BODIPY lipid droplet fluorescence, 18-24 h; for cell number change: measured here: cell count max response, cells fed with added oleic acid
Summary of the method: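 Drosophila S3 cells loaded with oleic acid (400 uM, as added) and compounds at several concentrations; lipid droplets imaged by 488-nm laser-scanning cytometry, 500–530 nm intensity and object ratio to cell channel. Percent activity normalized to 20 uM Triacsin C.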

[1] = measured here: lipid fluorescence (Fed channel) AC50, cells fed with added oleic acid
[2] = measured here: cell number channel AC50, cells fed with added oleic acid

SMILES	cell number change	AC50 [1]	AC50 [2]
CCN(CC(=O)Nc1ccc(OC)cc1)C(=O)c1ccc(N2CCCC2=O)cc1	-5.64%	0.58 µM [falling, single point]	–
CC1CCN(S(=O)(=O)CCNC(=O)c2ccc3c(c2)OCO3)CC1	-26.1%	0.092 µM [falling, full curve, poor fit]	0.116 µM [falling, full curve, poor fit]
Cc1ccc2nc(NS(C)(=O)=O)sc2c1	0.819%	2.31 µM [falling, partial curve]	–
CC(=O)c1sc(N/N=C\c2ccc(C)cc2)nc1C	-30.7%	0.58 µM [falling, single point]	10.3 µM [falling, single point]
CC(C(=O)Nc1ccccc1)N(C)CCOc1ccc(Br)cc1 (stereo not given)	20.6%	7.31 µM [falling, partial curve, poor fit]	–
Cc1ccc(COC(=O)CN2C(=O)NC3(CCCCC3C)C2=O)cc1 (stereo not given)	-1.87%	6.51 µM [rising, single point]	–
O=C1c2ccccc2C(=O)N1CCSc1nnc(-c2ccco2)n1Cc1ccccc1	-9.03%	4.11 µM [rising, partial curve]	0.164 µM [rising, full curve, poor fit]
COc1ccc(Nc2ccccc2)c(C)c1	-22.7%	–	–
Cc1ccc(NC(=O)CSc2nc3ccccc3c3nc4ccccc4n23)cc1	-16%	2.31 µM [falling, full curve]	2.59 µM [falling, partial curve]
CN1CC(c2ccccc2)C(c2ccc(Cl)cc2)=N1 (stereo not given)	-9.66%	7.31 µM [falling, partial curve]	–
Cc1nc(-c2cc(-c3ccc(Cl)cc3)no2)cs1	4.96%	–	–
CCOC(=O)NC(CC(=O)O)c1ccc(OC)cc1 (stereo not given)	-16.5%	–	–
Cc1ccc(NC(=O)c2ccc3c(c2)C(=O)N(Cc2cccnc2)C3=O)c(C)c1	–	0.112 µM [rising, full curve, poor fit]	–
Cc1cccc(N=Nc2c(C)nn(-c3ccccc3)c2N)c1C	-4.3%	1.84 µM [rising, partial curve]	–
CNC(=S)NC1CC2CCCC(C1)N2Cc1ccc(C)cc1 (stereo not given)	-12.2%	–	–
Cc1cc(C)c2c(N)c3cccc(C)c3nc2n1	-37.7%	25.9 µM [falling, single point]	0.58 µM [falling, full curve, poor fit]
Cc1sc(N2C(=O)C3C4C=CC(C4)C3C2=O)c(C#N)c1C (stereo not given)	-52.1%	–	25.9 µM [falling, single point]
O=C(c1cc(COc2c(F)cccc2F)on1)N1CCN(C2CCCCC2)C(=O)C1	22.9%	0.00411 µM [falling, full curve, poor fit]	–
CC(C)n1nnnc1-c1ccc(Cl)cc1	-24%	5.17 µM [falling, full curve, poor fit]	–

2 compounds from above, limited to cell number change and AC50 [1]:
SMILES	cell number change	AC50 [1]
Cc1sc(N2C(=O)C3C4C=CC(C4)C3C2=O)c(C#N)c1C (stereo not given)	-52.1%	–
O=C(c1cc(COc2c(F)cccc2F)on1)N1CCN(C2CCCCC2)C(=O)C1	22.9%	0.00411 µM [falling, full curve, poor fit]

(more compounds)

SMILES	cell number change	AC50 [1]	AC50 [2]
CSc1ccc(CCNC(=O)CCc2nnc3ccc(N4CCOCC4)nn23)cc1	28.7%	13 µM [falling, single point]	–
Cc1ccc(S(=O)(=O)N(C)c2ccc(C(=O)O)cc2)cc1	2.77%	29.1 µM [falling, partial curve, poor fit]	–
CC(C)C(C(=O)NC(C)(C)C)N1C(=O)c2ccccc2C1=O (stereo not given)	15.3%	–	–
Cc1ccc(NC(=O)CN2CCc3ccccc3C2)cc1S(=O)(=O)N1CCOCC1	16.7%	4.11 µM [rising, full curve, poor fit]	–
c1ccc(-c2onc(-c3ccco3)c2-c2ccc3[nH]ccc3c2)cc1	-25.6%	29.1 µM [falling, single point]	–
O=C1Nc2ccc(C(F)(F)F)cc2N2CCCC12 (stereo not given)	2.16%	0.411 µM [rising, full curve, poor fit]	–
CCNC(=O)/C(C#N)=C/c1c(N2CCN(Cc3ccc4c(c3)OCO4)CC2)nc2c(C)cccn2c1=O	15.1%	1.64 µM [rising, partial curve]	–
O=[N+]([O-])c1ccc2nc(-[n+]3c(-c4ccccc4)cc(-c4ccccc4)cc3-c3ccccc3)[nH]c2c1	-10.5%	4.61 µM [rising, partial curve]	0.651 µM [rising, partial curve, poor fit]
C/C(=N\NC(=O)c1cccc(N2CCCC2=O)c1)c1ccc(N)cc1	-19.4%	16.4 µM [falling, single point]	–
CCOc1cc(C2C(C(=O)c3ccc(C)cc3)=C(C(=O)OC)Nc3nnnn32)ccc1O (stereo not given)	-24.9%	–	–
CCc1ccc(-c2cc(C)no2)cc1S(=O)(=O)N1CCN(c2ccc(OC)cc2)CC1	3.77%	2.91 µM [rising, single point]	–
O=C(c1c(F)cccc1F)N1CCCC(c2nc(-c3ccc(Cl)cc3)no2)C1 (stereo not given)	-9.79%	–	–
O=C(NCCCN1CCOCC1)C1Cc2c(ccc3ccccc23)O1 (stereo not given)	-24.6%	–	–
CC1CCN(CCNC(=O)C2CCCN(S(=O)(=O)c3cccc4nsnc34)C2)CC1 (stereo not given)	-7.66%	0.0116 µM [falling, full curve, poor fit]	–
C=CC[C@]12CCc3sccc3C1N(c1ccc(C(=O)OCC)cc1)C2=O (stereo not given in full)	-39.1%	0.411 µM [falling, full curve]	0.517 µM [falling, full curve]
Cc1ccc(CN2CCN(Cc3ccccc3C(F)(F)F)CC2)cc1	-49.6%	–	16.4 µM [falling, partial curve]
CCn1c(SCC(=O)N2CCCc3ccccc32)nnc1-c1c[nH]c2ccccc12	-53.8%	16.4 µM [falling, partial curve]	32.6 µM [falling, single point]
CCn1c(CC(=O)Nc2ccc(C)cc2)nnc1SCC(=O)NCc1ccccc1	85.9%	1.03 µM [rising, single point]	16.4 µM [rising, partial curve]
Cc1ccccc1NC(=O)Cn1nnc2ccccc21	–	–	0.184 µM [rising, full curve, poor fit]
